Source: patent US20050025822A1, “Method of pulmonary administration of an agent” (priority 2003, published 2005)

Test system: NR8383 rat alveolar macrophages
Test: In vitro incubation of liposomes with rat alveolar macrophages (ciprofloxacin uptake)
Assay type: cell-based
Details: 0.5 mg/mL drug, 4 hours, 37° C.
Experimental: One of the key components in an inflammatory response in the lung is the activation of macrophages, where resident macrophages are a first line of cellular defense. An in vitro study was conducted to evaluate the extent of macrophage uptake of liposome formulation nos. […] As described in Example 6, rat alveolar macrophages were grown in culture. Cells were placed in a test tube along with liposome formulation no. […] 1 (diamonds), 2 (x symbols), 3 (triangles), and 4 (squares) is graphed.
NR8383 cell lines (ATCC) were established to provide a homogeneous and continuous source of responsive alveolar macrophages to study macrophage-related activity. NR8383 was obtained from ATCC as a continuous culture of rat alveolar macrophages. The original culture was obtained from bronchoalveolar lavages from female Sprague-Dawley rats. […] The continuous cell line was subcultured in Ham's F12 media containing 15% FBS (Gibco), 2 mM L-Glutamine (Gibco) and 100 U/100 μg Penicillin/streptomycin (Sigma).
NR8383 cells growing in log-phase were prepared in Ham's F12 media in the absence of serum at a concentration of 1×10^6 cells/mL. […] The lipid concentration ranged between 0.15-0.25 mg/mL total lipid. Cells were incubated for 4 hours at 37° C. and 5% CO2 with each tube lying on the side to maximize surface area. […]

Structure (SMILES): O=C(O)c1cn(C2CC2)c2cc(N3CCNCC3)c(F)cc2c1=O [free ciprofloxacin, ciprofloxacin]
- ciprofloxacin uptake into macrophages (in words): higher than for any of the liposomal formulations
